Assay results published in patent publication US8821938B2, “Porous drug matrices and methods of manufacture thereof” (Acusphere, Inc., priority 1999, dated 2014).

Legend:
[1] = Density of dry powder by Transaxial Pressure (TAP), Micromeritics GeoPyc 1360; assay type: physicochemical; conditions: consolidation force of 8 Newtons
[2] = Drug integrity post processing by HPLC; assay type: physicochemical
Method: Drug integrity post processing was assessed by High Pressure Liquid Chromatography (“HPLC”) (Hewlett Packard Series 1100 HPLC). USP chromatography conditions were used for prednisone, naproxen, nifedipine, and griseofulvin. Vessels and vials containing naproxen or nifedipine solutions were protected from light. For paclitaxel, the chromatographic conditions included a Nucleosil column (5:m, C18, 100A, 250×4.6 mm), a mobile phase of 2 mM H3PO4/Acetonitrile (2:3) at a flow rate of 1.5 mL/min, UV detection at 227 nm, and a run time of 25 min.

Density [1]: 0.69 g/mL | Purity (drug integrity post processing) [2]: 100%
SMILES: COc1ccc2cc([C@H](C)C(=O)O)ccc2c1 [Naproxen Bulk, naproxen]
